Measurements published in publication PMC5121602.
These are yes or no findings as the source states them, for the method shown. Binding seen in cells or lysates may run through a third protein. Sequences can lack the tags named with a protein.

By UniProt entry, the sequences of proteins in these tests, tags left out.
UniProt P46684: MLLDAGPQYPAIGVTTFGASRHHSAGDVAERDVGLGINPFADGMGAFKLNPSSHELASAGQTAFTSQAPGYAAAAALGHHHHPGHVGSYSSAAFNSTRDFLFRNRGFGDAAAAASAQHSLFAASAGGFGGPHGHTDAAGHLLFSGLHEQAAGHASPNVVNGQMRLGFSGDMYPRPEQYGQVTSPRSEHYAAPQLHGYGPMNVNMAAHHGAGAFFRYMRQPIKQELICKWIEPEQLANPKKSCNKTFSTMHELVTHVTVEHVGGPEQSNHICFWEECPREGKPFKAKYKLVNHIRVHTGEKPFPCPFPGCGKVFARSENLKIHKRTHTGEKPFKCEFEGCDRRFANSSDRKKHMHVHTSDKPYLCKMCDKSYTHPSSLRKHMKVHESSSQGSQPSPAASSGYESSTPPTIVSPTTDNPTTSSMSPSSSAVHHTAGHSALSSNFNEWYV

Target: T1, HA-tagged Gmnn (mouse) (UniProt O88513)
T1 sequence: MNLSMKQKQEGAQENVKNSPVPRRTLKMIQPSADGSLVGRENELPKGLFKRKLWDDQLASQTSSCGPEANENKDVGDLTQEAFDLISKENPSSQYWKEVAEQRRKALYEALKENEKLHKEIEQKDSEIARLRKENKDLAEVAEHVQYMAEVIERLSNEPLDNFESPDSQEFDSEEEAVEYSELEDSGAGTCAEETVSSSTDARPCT
Test: co-IP; HEK 293 cells transfected with HA-tagged Gmnn and Myc-tagged Zic1; immunoprecipitation with HA antibody, blotted for Myc

binding: no binding
Substance: Myc-tagged Zic1 (from UniProt P46684 1-447)
